Not every detail of the peptide structures is certain; ends, links or a residue may be inferred.
What was measured:
[1] = system: rabbit corneal wound model; assay: Corneal wound healing promotion action 2 (in vivo), approx. 8 mm corneal epithelial abrasion; parameters: species or system Japanese white rabbit
Description: (3) Corneal Wound Healing Promotion Action 2 (In vivo)
Using the same method as (2) above, corneal epithelial abrasion was induced in a Japanese white rabbit to produce a wound of approximately 8 mm in diameter in the cornea. The wound area was measured using the fluorescein-stained area as an index to examine the effects on corneal wound healing.
The eye drops containing the respective concentrations of the test compound were instilled (25 μl at a time) at 0, 6, 12, 18, 24, 30, 36, 42, 48, and 54 hours after induction corneal epithelial abrasion. In measuring the wound area, fluorescein staining was carried out and a photograph of the cornea was measured. The fluorescein-stained area of the photographed cornea was computed using an image analysis processing system.
(§1) In Tables 3 and 4, the respective values indicate the mean value±standard deviation (n=6). Statistical analysis was carried out using Dunnett's multiple comparison with respect to physiological saline with the area of the corneal wound portion immediately after (0 hours after) corneal epithelial abrasion being set to 100% (*p<0.05, **p<0.01; vs. control).

corneal epithelium = assay: Action on corneal epithelium migration (in vitro), corneal organ culture system; assay type: cell-based, Japanese white rabbit; conditions: rabbit corneal blocks incubated 20 hours in Medium-199 with 51.2-512.3 nM test compound, vs control; FIG. 1
[2] = system: rabbit corneal wound model; assay: Corneal wound healing promotion action 1 (in vivo), approx. 6 mm corneal epithelial abrasion; parameters: species or system Japanese white rabbit; conditions: for Healing ratio (%): 30 μl per instillation, mean ± SD, n=6
Description: (2) Corneal Wound Healing Promotion Action 1 (In Vivo)
Using a male Japanese white rabbit, a wound of approximately 6 mm in diameter was produced in the cornea by inducing corneal epithelial abrasion in accordance with the method of Cintron et al. (Ophthalmic Res., 11, pp. 90-96 (1979)). The wound area was measured using the fluorescein-stained area as an index. The effects of the test compound on corneal wound healing were examined.
The eye drops containing the respective concentrations of the test compound were instilled (30 μl at a time) at 0, 3, 6, 9, 12, 18, 24, 27, 30, 33, 36, 42, and 48 hours after inducing corneal epithelial abrasion. In measuring the wound area, fluorescein staining was carried out and a photograph of the cornea was measured. The fluorescein-stained area of the photographed cornea was computed using an image analysis processing system.
as §1, with “1” for “3”, “2,” for “4,”, “PBS” for “physiological saline”

Ac-PHSRN-NH2 [PHSRN, Ac-Pro-His-Ser-Arg-Asn-NH2]
Healing ratio (%) ([1]; 0.04% eye drop, 25 μl per instillation, 0 hr after abrasion, mean ± SD, n=6): 0%
promotion of wound healing ([1]; instillation of eye drops, vs physiological saline, Tables 3 and 4): significant promotion of wound healing
migration of corneal epithelium (migration length) (corneal epithelium): significant promotion of the migration of corneal epithelium
Healing ratio (%) ([2]; 2 μM eye drop, 0 hr after abrasion): 0%
Healing ratio (%) ([2]; 20 μM eye drop, 0 hr after abrasion): 0%
Healing ratio (%) ([2]; 200 μM eye drop, 0 hr after abrasion): 0%
Healing ratio (%) ([2]; 200 μM eye drop, 48 hr after abrasion): 100.00 ± 0.00%
Healing ratio (%) ([2]; 2000 μM eye drop, 0 hr after abrasion): 0%
Healing ratio (%) ([2]; 2000 μM eye drop, 48 hr after abrasion): 100.00 ± 0.00%
promotion of wound healing ([2]; instillation of eye drops, vs PBS, Tables 1 and 2): significant promotion of wound healing

Source: patent US8207119B2, “Ophthalmological composition” (Nihon Tenganyaku Kenkyusho Co., Ltd., priority 2002, dated 2012)
